## Percent effect of library compounds

Chains of the proteins cited; added tags and fusions are not shown. Residues count along the entry.
UniProt I6X8D2, whole entry: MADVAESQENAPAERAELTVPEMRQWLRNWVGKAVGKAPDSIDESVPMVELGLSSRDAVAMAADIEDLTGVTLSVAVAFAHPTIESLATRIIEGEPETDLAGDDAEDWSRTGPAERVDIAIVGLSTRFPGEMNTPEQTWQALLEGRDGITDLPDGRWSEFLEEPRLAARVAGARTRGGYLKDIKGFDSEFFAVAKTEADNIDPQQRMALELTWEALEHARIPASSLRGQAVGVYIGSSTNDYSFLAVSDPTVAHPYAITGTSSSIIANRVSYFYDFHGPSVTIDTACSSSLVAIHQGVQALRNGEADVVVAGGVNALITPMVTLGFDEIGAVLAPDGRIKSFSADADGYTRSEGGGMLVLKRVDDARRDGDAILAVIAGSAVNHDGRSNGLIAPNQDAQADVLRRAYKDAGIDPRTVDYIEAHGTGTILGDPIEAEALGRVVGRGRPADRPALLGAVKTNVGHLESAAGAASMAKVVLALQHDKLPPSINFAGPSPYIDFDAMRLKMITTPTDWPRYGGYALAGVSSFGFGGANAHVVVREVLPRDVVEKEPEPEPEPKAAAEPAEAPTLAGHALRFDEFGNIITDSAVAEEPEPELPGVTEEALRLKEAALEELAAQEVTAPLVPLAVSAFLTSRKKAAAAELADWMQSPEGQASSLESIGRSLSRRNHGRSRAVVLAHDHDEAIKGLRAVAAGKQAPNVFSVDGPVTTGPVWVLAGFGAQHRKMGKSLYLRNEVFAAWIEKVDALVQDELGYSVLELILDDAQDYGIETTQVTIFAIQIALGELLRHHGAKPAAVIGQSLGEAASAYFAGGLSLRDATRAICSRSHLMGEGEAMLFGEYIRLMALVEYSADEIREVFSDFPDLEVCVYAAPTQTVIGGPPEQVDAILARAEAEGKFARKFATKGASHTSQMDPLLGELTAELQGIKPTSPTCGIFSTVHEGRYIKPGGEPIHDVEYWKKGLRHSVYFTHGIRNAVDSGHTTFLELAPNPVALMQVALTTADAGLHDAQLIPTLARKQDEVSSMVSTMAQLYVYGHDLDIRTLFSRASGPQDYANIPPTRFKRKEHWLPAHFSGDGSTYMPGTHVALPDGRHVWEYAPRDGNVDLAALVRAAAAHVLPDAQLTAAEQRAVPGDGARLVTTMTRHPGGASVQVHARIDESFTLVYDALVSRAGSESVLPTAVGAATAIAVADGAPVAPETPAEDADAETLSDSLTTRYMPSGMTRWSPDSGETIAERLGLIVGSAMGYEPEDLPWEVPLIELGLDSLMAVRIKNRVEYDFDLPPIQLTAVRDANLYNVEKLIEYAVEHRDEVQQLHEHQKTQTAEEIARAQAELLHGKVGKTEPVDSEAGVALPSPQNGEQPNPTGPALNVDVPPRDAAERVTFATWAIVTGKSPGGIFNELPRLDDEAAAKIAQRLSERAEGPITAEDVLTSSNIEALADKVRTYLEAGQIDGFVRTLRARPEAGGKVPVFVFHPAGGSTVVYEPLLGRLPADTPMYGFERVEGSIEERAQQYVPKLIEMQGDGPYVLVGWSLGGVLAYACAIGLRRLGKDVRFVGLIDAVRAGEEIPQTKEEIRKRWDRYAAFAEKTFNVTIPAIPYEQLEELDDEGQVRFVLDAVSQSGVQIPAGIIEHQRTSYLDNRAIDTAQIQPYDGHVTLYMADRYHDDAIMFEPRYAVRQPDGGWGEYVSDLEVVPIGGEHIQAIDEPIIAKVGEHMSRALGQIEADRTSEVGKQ
UniProt P9WNZ1, whole entry: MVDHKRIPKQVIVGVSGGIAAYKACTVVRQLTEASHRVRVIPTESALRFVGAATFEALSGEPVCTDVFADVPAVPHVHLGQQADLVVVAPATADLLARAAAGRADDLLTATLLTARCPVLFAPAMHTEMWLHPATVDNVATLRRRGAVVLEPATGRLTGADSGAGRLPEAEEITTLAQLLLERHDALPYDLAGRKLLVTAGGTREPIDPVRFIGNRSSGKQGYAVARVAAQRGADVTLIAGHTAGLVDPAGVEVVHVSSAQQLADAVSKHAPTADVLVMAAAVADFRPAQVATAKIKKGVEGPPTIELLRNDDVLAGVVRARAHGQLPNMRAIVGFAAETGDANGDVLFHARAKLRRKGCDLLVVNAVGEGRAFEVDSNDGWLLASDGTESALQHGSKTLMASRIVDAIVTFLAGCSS
UniProt P9WFT3, whole entry: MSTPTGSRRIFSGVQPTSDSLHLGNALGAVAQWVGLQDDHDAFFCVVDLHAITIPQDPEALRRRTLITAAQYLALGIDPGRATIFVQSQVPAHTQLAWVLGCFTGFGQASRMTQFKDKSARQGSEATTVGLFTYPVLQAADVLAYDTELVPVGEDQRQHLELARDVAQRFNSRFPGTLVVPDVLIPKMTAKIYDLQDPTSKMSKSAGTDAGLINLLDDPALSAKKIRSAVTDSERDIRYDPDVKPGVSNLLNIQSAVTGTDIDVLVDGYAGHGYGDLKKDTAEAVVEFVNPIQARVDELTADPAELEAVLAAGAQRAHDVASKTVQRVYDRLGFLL
UniProt A4I591, 1-473: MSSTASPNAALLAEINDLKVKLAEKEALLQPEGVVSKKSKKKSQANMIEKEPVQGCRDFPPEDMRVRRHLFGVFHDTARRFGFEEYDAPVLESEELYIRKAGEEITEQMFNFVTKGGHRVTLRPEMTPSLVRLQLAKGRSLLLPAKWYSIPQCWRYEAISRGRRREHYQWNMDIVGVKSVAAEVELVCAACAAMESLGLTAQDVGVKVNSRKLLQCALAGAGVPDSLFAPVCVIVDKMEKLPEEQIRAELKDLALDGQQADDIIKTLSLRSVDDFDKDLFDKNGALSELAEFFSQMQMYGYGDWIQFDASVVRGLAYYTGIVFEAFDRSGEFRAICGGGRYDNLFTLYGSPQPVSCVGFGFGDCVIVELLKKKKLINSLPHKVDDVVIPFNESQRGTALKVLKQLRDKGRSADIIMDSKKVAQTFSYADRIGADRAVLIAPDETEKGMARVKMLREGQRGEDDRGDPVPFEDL
UniProt Q4DA54, 1-478: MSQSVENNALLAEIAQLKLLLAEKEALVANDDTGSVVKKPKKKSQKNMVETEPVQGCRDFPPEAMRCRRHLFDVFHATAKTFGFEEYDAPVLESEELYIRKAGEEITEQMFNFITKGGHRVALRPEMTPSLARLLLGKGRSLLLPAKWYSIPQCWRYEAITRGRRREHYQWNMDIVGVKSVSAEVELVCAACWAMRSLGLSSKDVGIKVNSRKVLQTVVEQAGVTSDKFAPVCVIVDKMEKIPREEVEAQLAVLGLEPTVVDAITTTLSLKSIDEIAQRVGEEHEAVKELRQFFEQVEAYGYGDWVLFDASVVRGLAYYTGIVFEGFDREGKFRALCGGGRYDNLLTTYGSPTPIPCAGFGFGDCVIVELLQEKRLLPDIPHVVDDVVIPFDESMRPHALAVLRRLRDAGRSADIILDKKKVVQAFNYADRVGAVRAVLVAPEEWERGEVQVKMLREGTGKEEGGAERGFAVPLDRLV

Source: ChEMBL document CHEMBL3988442, “University of Dundee, Small-Polar-MMV Screening Library” (2021).

The filed quantity is “Percent Effect” (%). The record does not define 0% and 100%; most values in the screen are far below 50% and negative numbers occur (in some assays of this library far below -100). The compounds are a random part of those screened. Two or more numbers in one place are separate tests of the same structure; such repeats can differ widely. A dash means the value is not listed here; it may have been measured.

Pks13 thioesterase: 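Polyketide synthase Pks13, Mycobacterium tuberculosis (UniProt I6X8D2). Enzyme assay of the thioesterase domain of polyketide synthase 13; the read-out is not stated. Tested at 30 µM. Higher reads as stronger inhibition (inferred from which compounds were picked for retests). Of about 67,000 compounds tested this way, about 300 (0.46%) reached 50% or more in at least one test.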
Toxoplasma: 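Assay of Toxoplasma gondii numbers, read through their beta-galactosidase reporter with a colour substrate. Compounds at 10 µM. Higher reads as fewer parasites (inferred from which compounds were picked for retests). Size under these conditions: about 67,000 compounds, about 260 of them at 50% or above in at least one test.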
CoaBC: 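Enzyme assay of CoaBC with a phosphate dye (Biomol Green) read at 650 nm. Target: Coenzyme A biosynthesis protein CoaBC, Mycobacterium tuberculosis (UniProt P9WNZ1). Tested at 30 µM. Higher reads as stronger inhibition, judged from the few compounds that gave an IC50. Most strong results did not repeat in a second test. Size under these conditions: about 67,000 compounds, about 40 of them at 50% or above in at least one test.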
MtTrpRS: 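Tryptophan-tRNA ligase, Mycobacterium tuberculosis (UniProt P9WFT3). Enzyme assay of tryptophanyl-tRNA synthetase; the read-out is not stated. Compounds at 10 µM. Direction is not recorded; retested compounds ran higher, which suggests that high means inhibition. Size under these conditions: about 65,000 compounds, about 64 of them at 50% or above in at least one test.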
LiHisRS: 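Histidine-tRNA ligase, Leishmania infantum (UniProt A4I591). Enzyme assay of histidyl-tRNA synthetase; the read-out is not stated. Tested at 30 µM. Higher reads as stronger inhibition (inferred: compounds with an IC50 in retests scored well above the rest). The assay is labelled LdHisRS but filed under L. infantum. Of about 69,000 compounds tested this way, about 410 (0.6%) reached 50% or more in at least one test.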
TcHisRS: 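Enzyme assay of histidyl-tRNA synthetase; the read-out is not stated. Target: Histidine-tRNA ligase, Trypanosoma cruzi CL Brener (UniProt Q4DA54). Tested at 30 µM. The record gives no direction; compounds that gave an IC50 in retests scored well above the rest, so higher reads as stronger inhibition. Of about 69,000 compounds tested this way, about 31 (0.045%) reached 50% or more in at least one test.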

| Compound | Pks13 thioesterase | Toxoplasma | CoaBC | MtTrpRS | LiHisRS | TcHisRS |
|---|---|---|---|---|---|---|
| `Cc1ccc(NC(=O)c2cccc(N(C)C)c2)nc1` | -26.21 | 0.6772 | -1.276 | -4.369 | 13.33 | 7.843 |
| `Cc1ccc(CNC(=O)NC(C)Cn2cccn2)cn1` (centres unmarked) | -10.89 | 1.156 | 2.611 | 3.762 | 16.81 | 2.624 |
| `Cc1ccc2c(c1)C(=O)CC1(CCN(Cc3ccccc3)CC1)O2` | 15.97 | 16.43 | 1.942 | - | 9.901 | -6.818 |
| `COc1ccc(C2=CCN(C(=O)C3CCN(C)C(=O)C3)CC2)cc1` (centres unmarked) | -0.437 | -1.067 | 11.52 | -0.09747 | 28.79 | -2.273 |
| `NS(=O)(=O)c1cccnc1Nc1c(Cl)cccc1Cl` | -21.01 | 6.46 | 7.732 & 31.99 | 0.08157 | 12.64 | 10.31 |
| `Cc1nc(N(C)C)ncc1C(=O)N(Cc1ccncc1)CC1CCCO1` (centres unmarked) | 7.755 | 2.588 | -0.3681 | 1.563 | 9.804 | 2.469 |
| `COCC1Cn2nnc(-c3cnn(C)c3)c2CN1Cc1ccc(C)s1.O=C(O)C(F)(F)F` (centres unmarked) | - | 4.489 | - | - | - | - |
| `O=C(O)C(F)(F)F.[H][C@@]12COC[C@]1(C(=O)NCCc1cccs1)CN(C1CCOCC1)C2` | - | -22.36 | - | - | - | - |
| `Cn1c(C2CC2)nc2cc(NC(=O)C3CCOC3)ccc21` (centres unmarked) | -9.957 | -3.35 | 3.023 | -7.53 | 17.74 | 7.143 |
| `CC(C)CN1C(=O)C2(CCN(CC3CCOCC3)C2)c2ccccc21` (centres unmarked) | -26.27 | - | 3.299 | -5.021 | 14.71 | -2.956 |
| `CC(C)(CNC(=O)OC(C)(C)C)NC(=O)C1CC(=O)N(C2CC2)C1` (centres unmarked) | -16.5 | 2.286 | -8.811 | -2.012 | -1.887 | 0.8475 |
| `COCCOCCNC(=O)N1CCN(c2ccccc2C#N)CC1` | 2.074 | -2.924 | 6.746 | -3.402 | 22.22 | -2.041 |
| `COc1ccc(F)cc1C(=O)C1CCCN(Cc2cnc(C)s2)C1` (centres unmarked) | 2.132 | -10.83 | 2.433 | -0.5083 | 11.11 | 5.455 |
| `CC(C)CN1C(=O)CC[C@]12CC[C@@H](NC(=O)NCc1cccnc1)CC2` | -14.33 | - | 1.98 | - | 6.306 | 5.525 |
| `CN(C)C(=O)c1n[nH]c2c1CN(Cc1ccccn1)CC2` | -25.94 | - | 5.598 | -5.255 | 9.709 | 2.913 |
| `c1cc(-c2nnc(C3(c4ccc5c(c4)OCO5)CCOCC3)o2)ccn1` | -23.99 | -6.75 | 0 | -2.147 | 12.7 | 0.5128 |
| `O=C(C1=CCCC1)N1C[C@@H]2COC[C@]2(COc2cccnc2)C1` | -34.75 | - | 4.113 | -0.4359 | 6.015 | -0.5525 |
| `CNC(=O)c1cccnc1Oc1ccccc1` | -19.29 | 1.795 | -0.4837 | -0.5344 | 21.95 | 1.504 |
| `CN(CCc1ccncc1)c1cnn(C)c(=O)c1Br` | 0.2456 | -21.34 | 7.654 | -3.213 | 8.434 | 5.473 |
| `O=C(O)C(F)(F)F.O=C(c1cnccn1)N1CCCC2(CCN(c3ncccn3)C2)C1` (centres unmarked) | - | 4.083 | - | - | - | - |
| `Cc1nc(CCN)cc(N2CCCN(C(=O)c3ccco3)CC2)n1` | - | -27.82 | 4.704 | -3.841 | 29.6 | 8.543 |
| `Cc1cnccc1-n1nc(C(C)C)nc1CCN(C)S(C)(=O)=O` | 8.506 | 4.11 | - | -5.779 | 4.167 | 3.947 |
| `Cc1cc(Nc2cnccn2)cc(C2CCCN2)n1` (centres unmarked) | -5.761 | 7.287 | 4.795 | 15.34 | 6.711 | -0.2857 |
| `NC(=O)NCC(=O)N1CCCC(OCc2cccnc2)C1` (centres unmarked) | 0.5882 | 5.754 | 0.2538 | -8.844 | -3.529 | -4.036 |
| `CC(C)(O)CN1CCN(C(=O)c2sccc2C#N)CC1` | -12.34 | -11.9 | 4.453 | -4.089 | 9.565 | -1.127 |
| `O=C(CCN1CCCO1)N1CCCC(CO)(CCCc2ccccc2)C1` (centres unmarked) | -9.928 | -2.436 | -9.434 | -2.925 | 12.09 | 1.031 |
| `O=C(c1nc(Cc2c[nH]c3ccccc23)no1)N1CCCC1` | -6.764 | - | -1.337 | 1.768 | 2.174 | 0 |
| `Cc1ccccc1-c1noc(CNc2ccc(F)cc2OCCO)n1` | -0.4859 | -7.477 | -1.985 | -7.678 | 17.02 | 12.14 |
| `Cl.O=C(C1CC1)N1CCc2ccccc2C12CCNCC2` | - | 14.21 | - | - | - | - |
| `CN1CCN(c2ccc(NS(=O)(=O)c3ccc(Cl)s3)cc2C(=O)O)CC1` | -19.01 | 12.85 | -6.192 | 5.598 | 15.07 | 7 |
| `CN(C)CC(=O)N1Cc2nc(C(=O)N3CCCN(C)CC3)oc2C1` | -3.534 | -11.25 | 1.98 | - | -8.108 | -442 |
| `Nc1nccc(N[C@H]2CN(CC(=O)NC3CCCCC3)C[C@@H]2C2CC2)n1` | -24.08 | -24.82 | 1.023 | 0.315 | 11.48 | 9.091 |
| `Cc1cc(=O)n(CC(=O)Nc2ccc(C(N)=O)cc2)nc1C` | -6.503 | -0.1154 | 6.183 | -1.471 | 7.692 | 0.8333 |

Some entries from above, unchanged:

| Compound | Pks13 thioesterase | Toxoplasma | CoaBC | MtTrpRS | LiHisRS | TcHisRS |
|---|---|---|---|---|---|---|
| `c1cc(-c2nnc(C3(c4ccc5c(c4)OCO5)CCOCC3)o2)ccn1` | -23.99 | -6.75 | 0 | -2.147 | 12.7 | 0.5128 |
| `COc1ccc(F)cc1C(=O)C1CCCN(Cc2cnc(C)s2)C1` (centres unmarked) | 2.132 | -10.83 | 2.433 | -0.5083 | 11.11 | 5.455 |
| `Cc1ccc(NC(=O)c2cccc(N(C)C)c2)nc1` | -26.21 | 0.6772 | -1.276 | -4.369 | 13.33 | 7.843 |
| `CC(C)CN1C(=O)CC[C@]12CC[C@@H](NC(=O)NCc1cccnc1)CC2` | -14.33 | - | 1.98 | - | 6.306 | 5.525 |